In US20050070699A1:
These are yes or no findings as the source states them, for the method shown. Some results given as binding are weak or reduced against the parent protein; the word gives no strength.

What was measured:
[1] = target: T1, cytoplasmic domain of Zmax1 (LRP5), yeast two hybrid bait (Homo sapiens (Human)) (UniProt O75197); assay: yeast two hybrid; bait: cytoplasmic domain of Zmax1 (LRP5); prey cDNA libraries (brain, HeLa, TE85)
T1 sequence: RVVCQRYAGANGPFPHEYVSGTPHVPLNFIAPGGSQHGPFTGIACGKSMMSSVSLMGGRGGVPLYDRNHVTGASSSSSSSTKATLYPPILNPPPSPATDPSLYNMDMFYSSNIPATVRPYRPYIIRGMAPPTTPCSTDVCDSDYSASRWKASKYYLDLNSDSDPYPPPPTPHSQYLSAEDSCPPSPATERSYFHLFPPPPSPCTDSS

[2] = target: T1, cytoplasmic domain of Zmax1 (LRP5), yeast two hybrid bait (Homo sapiens (Human)); assay: yeast two hybrid

B1: PINCH-like protein (Novel) (protein)
chain: STGSEFPLCTKASPCSAARAGGRALGWRLQQQRETRGNPGNPGLGVAATMTGSNMSDALANAVCQRCQARFSPAERIVNSNGELYHEHCFVCAQCFRPFPEGLFYEFEGRKYCEHDFQMLFAPCCGSCGEFIIGRVIKAMNNNWHPGCFRCELCDVELADLGFVKNAGRHLCRPCHNREKAKGLGKYICQRCHLVIDEQPLMFRSDAYHPDHFNCTHCGKELTAEARELKGELYCLPCHDKMGVPICGACRRPIEGRVVNALGKQWHVEHFVCAKCEKPFLGHRHYEKKGLAYCEL
Q: B1 was tested. Which binding [1] did it give?
A: The binding was “binds”.

Q: And the binding [2]?
A: Its binding is “binds”.
